Results from patent US9888688B2, “Tetrazolinone compounds and applications thereof” (Sumitomo Chemical Company, Limited, priority 2013, dated 2018).
Some results were stated once for a whole list of compounds, not compound by compound.

Assays:
Type in all cases: in vivo
[1] = test system: cucumber corynespora leaf spot fungus (Corynespora cassicola); assay: Cucumber corynespora leaf spot control test (Test Examples 26, 27); details: cucumber SAGAMI HANJIRO, inoculated after one day, 7 days
[2] = test system: wheat leaf blotch fungus (Septoria tritici); assay: Wheat leaf blotch control test, spray after inoculation (Test Example 8); details: 200 ppm foliar spray 3 days after inoculation, wheat APOGEE
[3] = test system: barley scald fungus (Rhynchosporium secalis); assay: Barley scald control test, foliar spray on barley (Test Examples 20, 21); details: 200 ppm foliar spray, barley NISHINOHOSHI, inoculated after 2 days
[4] = test system: barley net blotch fungus (Pyrenophora teres); assay: Barley net blotch control test, foliar spray on barley (Test Examples 4, 16, 17, 18); details: barley NISHINOHOSHI, inoculated after 2 days
[5] = test system: kidney bean stem rot fungus (Sclerotinia sclerotiorum); assay: Kidney bean stem rot control test, foliar spray on kidney bean (Test Examples 5, 22, 23); details: kidney bean NAGAUZURA NATANE, four days after inoculation
[6] = test system: cucumber anthracnose fungus (Colletotrichum lagenarium); assay: Cucumber anthracnose control test (Test Examples 28, 29); details: cucumber SAGAMI HANJIRO, inoculated after one day
[7] = test system: soybean rust fungus (Phakopsora pachyrhizi); assay: Soybean rust control test, foliar spray on soybean (Test Example 19); details: 200 ppm foliar spray, soybean KUROSENGOKU, inoculated after 2 days
[8] = test system: wheat leaf blotch fungus (Septoria tritici); assay: Wheat leaf blotch control test, spray before inoculation (Test Examples 6, 9, 10, Comparative Test Example); details: wheat APOGEE, inoculated after 4 days

Measured: area of lesion spots relative to that on an untreated plant

Cc1ccnc(-c2ccc(OCc3c(Cl)cccc3-n3nnn(C)c3=O)c(C)c2)c1 [Present Compound 24]
≤ 30%: [1]; 200 ppm foliar spray | [2] | [3] | [4]; 200 ppm foliar spray | [4]; 500 ppm foliar spray | [5]; 200 ppm foliar spray | [5]; 500 ppm foliar spray | [6]; 50 ppm foliar spray | [7] | [8]; 200 ppm foliar spray | [8]; 500 ppm foliar spray

Cc1cc(-c2ncccn2)ccc1OCc1c(C2CC2)cccc1-n1nnn(C)c1=O [Present Compound 85]
≤ 30%: [1]; 200 ppm foliar spray | [2] | [3] | [4]; 200 ppm foliar spray | [4]; 500 ppm foliar spray | [5]; 200 ppm foliar spray | [5]; 500 ppm foliar spray | [6]; 50 ppm foliar spray | [7] | [8]; 200 ppm foliar spray

Cc1cccc(-c2ccc(OCc3c(C4CC4)cccc3-n3nnn(C)c3=O)c(C)c2)n1 [Present Compound 52]
≤ 30%: [1]; 50 ppm foliar spray | [2] | [3] | [4]; 200 ppm foliar spray | [4]; 500 ppm foliar spray | [5]; 200 ppm foliar spray | [5]; 500 ppm foliar spray | [6]; 50 ppm foliar spray | [7] | [8]; 200 ppm foliar spray | [8]; 500 ppm foliar spray

Cc1cc(-c2ccc(F)cn2)c(C)cc1OCc1c(C2CC2)cccc1-n1nnn(C)c1=O [Present Compound 219]
≤ 30%: [1]; 200 ppm foliar spray | [2] | [3] | [4]; 200 ppm foliar spray | [4]; 500 ppm foliar spray | [5]; 200 ppm foliar spray | [5]; 500 ppm foliar spray | [6]; 200 ppm foliar spray | [7] | [8]; 200 ppm foliar spray | [8]; 500 ppm foliar spray

Cc1cc(OCc2c(C)cccc2-n2nnn(C)c2=O)c(Cl)cc1-c1ccccn1 [Present Compound 190]
≤ 30%: [1]; 200 ppm foliar spray | [2] | [3] | [4]; 200 ppm foliar spray | [4]; 500 ppm foliar spray | [5]; 200 ppm foliar spray | [5]; 500 ppm foliar spray | [6]; 200 ppm foliar spray | [7] | [8]; 200 ppm foliar spray | [8]; 500 ppm foliar spray

Cc1cc(-c2ccc(F)cn2)c(C)cc1OCc1c(C)cccc1-n1nnn(C)c1=O [Present Compound 173]
≤ 30%: [1]; 200 ppm foliar spray | [2] | [3] | [4]; 200 ppm foliar spray | [4]; 500 ppm foliar spray | [5]; 200 ppm foliar spray | [5]; 500 ppm foliar spray | [6]; 200 ppm foliar spray | [7] | [8]; 200 ppm foliar spray | [8]; 500 ppm foliar spray

COc1ncccc1-c1cc(C)c(OCc2c(C)cccc2-n2nnn(C)c2=O)cc1C [Present Compound 193]
≤ 30%: [1]; 200 ppm foliar spray | [2] | [3] | [4]; 200 ppm foliar spray | [4]; 500 ppm foliar spray | [5]; 200 ppm foliar spray | [5]; 500 ppm foliar spray | [6]; 200 ppm foliar spray | [7] | [8]; 200 ppm foliar spray | [8]; 500 ppm foliar spray

Cc1ccnc(-c2cc(C)c(OCc3c(C)cccc3-n3nnn(C)c3=O)cc2C)n1 [Present Compound 172]
≤ 30%: [1]; 200 ppm foliar spray | [2] | [3] | [4]; 200 ppm foliar spray | [4]; 500 ppm foliar spray | [5]; 200 ppm foliar spray | [5]; 500 ppm foliar spray | [6]; 200 ppm foliar spray | [7] | [8]; 200 ppm foliar spray | [8]; 500 ppm foliar spray

Cc1cccc(-c2ccc(OCc3c(C)cccc3-n3nnn(C)c3=O)c(C)c2)n1 [Present Compound 48]
≤ 30%: [1]; 50 ppm foliar spray | [2] | [3] | [4]; 200 ppm foliar spray | [4]; 500 ppm foliar spray | [5]; 200 ppm foliar spray | [5]; 500 ppm foliar spray | [6]; 50 ppm foliar spray | [7] | [8]; 200 ppm foliar spray | [8]; 500 ppm foliar spray

CCc1cccc(-n2nnn(C)c2=O)c1COc1ccc(-c2cccc(C)n2)cc1C [Present Compound 51]
≤ 30%: [1]; 50 ppm foliar spray | [2] | [3] | [4]; 200 ppm foliar spray | [4]; 500 ppm foliar spray | [5]; 50 ppm foliar spray | [5]; 500 ppm foliar spray | [6]; 50 ppm foliar spray | [7] | [8]; 200 ppm foliar spray | [8]; 500 ppm foliar spray

Cc1ccc(-c2cc(C)c(OCc3c(C)cccc3-n3nnn(C)c3=O)cc2C)nn1 [Present Compound 235]
≤ 30%: [1]; 200 ppm foliar spray | [2] | [3] | [4]; 200 ppm foliar spray | [4]; 500 ppm foliar spray | [5]; 200 ppm foliar spray | [5]; 500 ppm foliar spray | [6]; 200 ppm foliar spray | [7]

Cc1ccc(-c2ccc(OCc3c(C)cccc3-n3nnn(C)c3=O)c(C)c2)nn1 [Present Compound 234]
≤ 30%: [1]; 200 ppm foliar spray | [2] | [3] | [4]; 200 ppm foliar spray | [4]; 500 ppm foliar spray | [5]; 200 ppm foliar spray | [5]; 500 ppm foliar spray | [6]; 200 ppm foliar spray | [7]

Cc1cc(-c2ncc(F)cn2)c(C)cc1OCc1c(C)cccc1-n1nnn(C)c1=O [Present Compound 238]
≤ 30%: [1]; 200 ppm foliar spray | [2] | [3] | [4]; 200 ppm foliar spray | [4]; 500 ppm foliar spray | [5]; 200 ppm foliar spray | [5]; 500 ppm foliar spray | [6]; 200 ppm foliar spray | [7]
